From the supplement of paper PMC10849652
The list shows a part of the results.

Chains of the proteins cited; added tags and fusions are not shown. Lines headed by an entry give the natural chain unless they say otherwise; changes in a name come on top.
UniProt P61006: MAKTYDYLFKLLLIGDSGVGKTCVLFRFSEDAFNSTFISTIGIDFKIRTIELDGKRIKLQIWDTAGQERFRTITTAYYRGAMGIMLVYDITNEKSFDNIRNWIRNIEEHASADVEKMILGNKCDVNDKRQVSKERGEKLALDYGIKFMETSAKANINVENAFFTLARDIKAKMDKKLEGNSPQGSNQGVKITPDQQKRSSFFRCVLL
UniProt P61106, whole entry, looked up: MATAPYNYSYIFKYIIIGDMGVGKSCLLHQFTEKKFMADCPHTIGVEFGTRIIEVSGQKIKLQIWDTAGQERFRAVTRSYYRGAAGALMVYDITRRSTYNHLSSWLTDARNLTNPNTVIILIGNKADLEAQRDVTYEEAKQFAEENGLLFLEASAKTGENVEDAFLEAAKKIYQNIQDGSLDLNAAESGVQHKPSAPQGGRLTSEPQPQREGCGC
UniProt P62834: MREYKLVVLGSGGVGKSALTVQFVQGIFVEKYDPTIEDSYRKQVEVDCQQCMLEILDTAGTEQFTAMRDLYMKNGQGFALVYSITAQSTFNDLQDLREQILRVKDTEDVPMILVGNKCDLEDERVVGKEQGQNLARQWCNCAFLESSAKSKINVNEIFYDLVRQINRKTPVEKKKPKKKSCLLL
UniProt Q96S59, whole entry, looked up: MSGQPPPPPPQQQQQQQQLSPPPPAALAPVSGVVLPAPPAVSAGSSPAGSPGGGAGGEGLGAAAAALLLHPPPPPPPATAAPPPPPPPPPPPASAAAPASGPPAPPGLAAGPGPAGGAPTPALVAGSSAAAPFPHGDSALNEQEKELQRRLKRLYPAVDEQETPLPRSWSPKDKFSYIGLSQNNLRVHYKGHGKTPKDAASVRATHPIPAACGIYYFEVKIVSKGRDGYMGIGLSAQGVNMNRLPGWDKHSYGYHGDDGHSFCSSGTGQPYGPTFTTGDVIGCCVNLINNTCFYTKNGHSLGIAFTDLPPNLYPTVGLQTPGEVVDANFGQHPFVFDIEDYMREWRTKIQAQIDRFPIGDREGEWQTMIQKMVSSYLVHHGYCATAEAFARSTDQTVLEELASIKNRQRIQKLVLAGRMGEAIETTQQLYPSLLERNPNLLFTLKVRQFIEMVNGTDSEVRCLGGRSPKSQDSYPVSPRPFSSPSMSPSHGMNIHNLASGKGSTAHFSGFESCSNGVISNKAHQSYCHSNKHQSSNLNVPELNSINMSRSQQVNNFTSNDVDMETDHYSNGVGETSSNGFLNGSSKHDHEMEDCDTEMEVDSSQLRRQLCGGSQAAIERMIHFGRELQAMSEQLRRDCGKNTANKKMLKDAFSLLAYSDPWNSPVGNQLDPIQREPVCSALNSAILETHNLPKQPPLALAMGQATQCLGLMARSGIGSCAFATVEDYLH
UniProt Q9ULC3: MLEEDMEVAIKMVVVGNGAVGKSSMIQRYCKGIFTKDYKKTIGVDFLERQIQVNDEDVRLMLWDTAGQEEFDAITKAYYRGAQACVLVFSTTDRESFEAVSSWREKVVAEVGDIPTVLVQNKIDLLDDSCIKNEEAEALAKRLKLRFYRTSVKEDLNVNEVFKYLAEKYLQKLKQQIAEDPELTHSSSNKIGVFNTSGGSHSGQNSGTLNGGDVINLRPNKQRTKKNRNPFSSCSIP
UniProt O43502: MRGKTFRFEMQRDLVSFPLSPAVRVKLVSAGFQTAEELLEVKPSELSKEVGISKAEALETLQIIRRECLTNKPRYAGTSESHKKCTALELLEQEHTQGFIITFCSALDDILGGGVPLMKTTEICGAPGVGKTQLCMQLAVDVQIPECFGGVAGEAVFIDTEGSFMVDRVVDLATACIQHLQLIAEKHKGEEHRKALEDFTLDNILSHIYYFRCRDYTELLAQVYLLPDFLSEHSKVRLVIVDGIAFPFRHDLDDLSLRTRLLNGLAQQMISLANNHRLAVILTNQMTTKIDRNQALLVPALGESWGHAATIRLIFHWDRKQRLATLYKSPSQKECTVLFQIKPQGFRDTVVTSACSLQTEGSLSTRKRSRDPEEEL
UniProt P47224: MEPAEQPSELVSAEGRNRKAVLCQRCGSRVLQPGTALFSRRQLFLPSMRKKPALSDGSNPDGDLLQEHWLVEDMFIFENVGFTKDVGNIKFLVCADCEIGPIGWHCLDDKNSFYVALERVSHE
UniProt P61026: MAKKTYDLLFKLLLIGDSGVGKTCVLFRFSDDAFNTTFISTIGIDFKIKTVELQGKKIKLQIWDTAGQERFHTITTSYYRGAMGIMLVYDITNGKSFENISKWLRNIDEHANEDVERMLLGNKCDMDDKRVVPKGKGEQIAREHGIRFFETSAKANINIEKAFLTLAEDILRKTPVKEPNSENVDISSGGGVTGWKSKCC
UniProt Q16576, whole entry, looked up: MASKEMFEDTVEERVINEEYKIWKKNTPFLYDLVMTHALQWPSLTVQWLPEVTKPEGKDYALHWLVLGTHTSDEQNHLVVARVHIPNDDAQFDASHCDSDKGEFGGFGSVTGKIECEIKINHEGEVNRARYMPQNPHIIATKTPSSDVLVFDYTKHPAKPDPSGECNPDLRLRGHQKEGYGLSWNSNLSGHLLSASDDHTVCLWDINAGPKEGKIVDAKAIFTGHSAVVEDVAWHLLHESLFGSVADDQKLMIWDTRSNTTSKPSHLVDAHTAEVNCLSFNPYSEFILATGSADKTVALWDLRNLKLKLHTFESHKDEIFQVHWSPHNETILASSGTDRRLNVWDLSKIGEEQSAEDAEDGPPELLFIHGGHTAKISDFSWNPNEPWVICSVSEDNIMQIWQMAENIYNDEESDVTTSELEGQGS
UniProt Q9NRW1: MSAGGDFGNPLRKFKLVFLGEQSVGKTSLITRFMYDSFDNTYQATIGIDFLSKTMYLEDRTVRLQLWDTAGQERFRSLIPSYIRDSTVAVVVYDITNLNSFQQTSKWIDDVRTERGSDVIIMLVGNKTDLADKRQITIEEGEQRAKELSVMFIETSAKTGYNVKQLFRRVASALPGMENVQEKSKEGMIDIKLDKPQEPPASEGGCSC
UniProt O14966: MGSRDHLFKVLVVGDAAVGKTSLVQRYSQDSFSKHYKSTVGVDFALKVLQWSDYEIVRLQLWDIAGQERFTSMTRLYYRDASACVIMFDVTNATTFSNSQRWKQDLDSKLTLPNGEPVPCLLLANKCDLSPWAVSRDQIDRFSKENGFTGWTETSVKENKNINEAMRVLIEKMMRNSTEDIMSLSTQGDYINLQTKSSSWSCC
UniProt Q8WWW0: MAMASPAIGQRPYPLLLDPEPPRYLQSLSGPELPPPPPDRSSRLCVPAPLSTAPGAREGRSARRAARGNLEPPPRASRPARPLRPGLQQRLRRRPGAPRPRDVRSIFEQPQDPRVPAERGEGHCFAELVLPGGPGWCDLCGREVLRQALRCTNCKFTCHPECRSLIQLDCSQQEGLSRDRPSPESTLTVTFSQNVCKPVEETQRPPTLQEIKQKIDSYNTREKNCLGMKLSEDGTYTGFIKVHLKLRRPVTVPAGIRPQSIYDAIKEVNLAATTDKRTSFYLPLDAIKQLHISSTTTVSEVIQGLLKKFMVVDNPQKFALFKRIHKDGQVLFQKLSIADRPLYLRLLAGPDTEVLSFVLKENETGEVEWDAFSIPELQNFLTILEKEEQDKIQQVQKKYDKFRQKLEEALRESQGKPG
UniProt Q15907: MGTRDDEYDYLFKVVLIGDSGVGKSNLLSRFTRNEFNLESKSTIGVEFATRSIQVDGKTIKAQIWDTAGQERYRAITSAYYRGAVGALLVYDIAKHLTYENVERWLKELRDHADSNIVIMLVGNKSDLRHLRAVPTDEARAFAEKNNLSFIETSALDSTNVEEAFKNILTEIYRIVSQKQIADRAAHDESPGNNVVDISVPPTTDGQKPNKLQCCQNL
UniProt Q96S21: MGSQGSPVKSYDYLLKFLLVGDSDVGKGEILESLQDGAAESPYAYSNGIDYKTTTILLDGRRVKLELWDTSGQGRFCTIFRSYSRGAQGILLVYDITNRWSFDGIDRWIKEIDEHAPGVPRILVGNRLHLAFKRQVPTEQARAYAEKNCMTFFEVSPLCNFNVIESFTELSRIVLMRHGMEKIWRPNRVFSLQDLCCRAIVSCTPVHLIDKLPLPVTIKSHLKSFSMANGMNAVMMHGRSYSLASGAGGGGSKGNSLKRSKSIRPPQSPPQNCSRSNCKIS

Tests used:
Experiment in all cases: log2 fold change, soluble protein after heating vs DMSO (PISA); higher = thermal stabilisation; K562 cells, 10 uM, 30 min; active = over 0.2 and 3.5 SD of the protein, either way, in both replicates (recomputed)
[1] = compound: CC1=C(C=C(C=C1)NC(=O)C2=CC(=CC=C2)C(C)(C)C#N)NC3=CC4=C(C=C3)N=CN(C4=O)C
Outline: (§1)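 K562 cells at 2×10^6 cells/mL were treated for 30 min with 10 μM compound, and aliquots were heated for 3 min over 48°C-58°C before pooling. Extraction used PBS with 0.5% NP-40 at 4°C, and soluble protein was the supernatant after 21,000xg for 90 min, measured by TMTpro 16plex LC-MS/MS with channel sums equalised. Thermal stability values, relative to control samples and from duplicates, are log2 fold changes.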

[2] = compound: CC1=C(C=C(C=C1)NC(=O)C2=CC(=CC=C2)N(C)C)NC(=O)C3=CC=C(C=C3)O
Outline: as §1

[3] = compound: CC1=CC=C(C=C1)SC2=C3C=C(SC3=CN=C2)C(=O)N
Outline: as §1

[4] = compound: CC1=NC(=CC=C1)C2=C(N=C(N2)C(C)(C)C)C3=CC4=NC=CN=C4C=C3
Outline: as §1

Nexturastat A = compound: CCCCN(Cc1ccc(C(=O)NO)cc1)C(=O)Nc1ccccc1 [Nexturastat A]
Outline: as §1

vemurafenib = compound: CCCS(=O)(=O)Nc1ccc(F)c(C(=O)c2c[nH]c3ncc(-c4ccc(Cl)cc4)cc23)c1F [vemurafenib]
Outline: as §1

[5] = compound: CCCS(=O)(=O)Nc1ccc(F)c(C(=O)c2c[nH]c3ncc(Cl)cc23)c1F
Outline: as §1

[6] = compound: CCCc1cc(C)[nH]c(=O)c1CNC(=O)c1cc(-c2ccnc(N3CCN(C)CC3)c2)cc2c1cnn2C(C)C
Outline: as §1

givinostat = compound: CCN(CC)Cc1ccc2cc(COC(=O)Nc3ccc(C(=O)NO)cc3)ccc2c1 [givinostat]
Outline: as §1

barasertib = compound: CCN(CCCOc1ccc2c(Nc3cc(CC(=O)Nc4cccc(F)c4)[nH]n3)ncnc2c1)CCOP(=O)(O)O [barasertib]
Outline: as §1

[7] = compound: CC[C@@H]1C(=O)N(C)c2cnc(Nc3ccc(C(=O)NC4CCN(C)CC4)cc3OC)nc2N1C1CCCC1
Outline: as §1

volasertib = compound: CC[C@@H]1C(=O)N(C)c2cnc(Nc3ccc(C(=O)N[C@H]4CC[C@H](N5CCN(CC6CC6)CC5)CC4)cc3OC)nc2N1C(C)C [volasertib]
Outline: as §1

[8] = compound: CC[C@H](C)N1C=C(C2=C(C=C(C=C21)C3=CN=C(C=C3)N4CCNCC4)C(=O)NCC5=C(C=C(NC5=O)C)C)C
Outline: as §1

epoxomicin = compound: CC[C@H](C)[C@@H](C(=O)N[C@@H]([C@@H](C)O)C(=O)N[C@@H](CC(C)C)C(=O)[C@]1(CO1)C)NC(=O)[C@H]([C@@H](C)CC)N(C)C(=O)C [epoxomicin]
Outline: as §1

[9] = compound: CCn1c(C(=O)N(C2CC2)C2CC2)cc2c3c(ncn3C)c(Nc3cc(C)n(C)n3)nc21
Outline: as §1

[10] = compound: CCn1cc(-c2ccnc3[nH]c(-c4cccc(CN(C)C)c4)cc23)c(-c2ccc(NC(=O)N(C)C)cc2)n1
Outline: as §1

[11] = compound: CN(C)CC(=O)Nc1ccc2[nH]c(=O)c3ccccc3c2c1
Outline: as §1

rosiglitazone = compound: CN(CCOC1=CC=C(C=C1)C[C@H]2C(=O)NC(=O)S2)C3=CC=CC=N3 (racemic) [rosiglitazone]
Outline: as §1

[12] = compound: CN1C2=C(C3=C1C(=O)N(N=C3)CC4=CC(=CC=C4)N)SC(=C2)S(=O)C
Outline: as §1

[13] = compound: CN1CCC(CNc2ccc3ncc(-c4cccc(OC(F)(F)F)c4)n3n2)CC1
Outline: as §1

Measured: log2 fold change

RAB8A isoform 2 (UniProt P61006)
inactive: [1] 0.014 | [2] 0.028 | [3] 0.001 | [4] 0.021 | Nexturastat A -0.158 | vemurafenib 0.028 | [5] -0.019 | [6] -0.017 | givinostat -0.058 | barasertib -0.003 | [7] 0.086 | volasertib 0.003 | [8] -0.026 | epoxomicin 0.003 | [9] 0.048 | [10] 0.006 | [11] -0.008 | rosiglitazone 0.018 | [12] -0.062 | [13] 0.106

RAB14 (UniProt P61106)
inactive: [1] 0 | [2] 0.014 | [3] 0.024 | [4] 0.012 | Nexturastat A -0.047 | vemurafenib 0.001 | [5] 0.018 | [6] -0.021 | givinostat 0 | barasertib -0.024 | [7] 0.03 | volasertib 0.039 | [8] -0.047 | epoxomicin -0.011 | [9] 0.028 | [10] -0.005 | [11] 0.02 | rosiglitazone -0.001 | [12] -0.055 | [13] 0.071

RACK1 (UniProt P63244)
inactive: [1] 0.015 | [2] 0.015 | [3] 0.011 | [4] 0.064 | Nexturastat A -0.055 | vemurafenib 0.016 | [5] -0.008 | [6] 0.016 | givinostat -0.046 | barasertib -0.023 | [7] 0.066 | volasertib 0.149 | [8] 0.046 | epoxomicin 0.033 | [9] 0.012 | [10] -0.07 | [11] 0.002 | rosiglitazone 0.01 | [12] -0.069 | [13] -0.027

RAP1A (UniProt P62834)
inactive: [1] 0.012 | [2] -0.05 | [3] 0.003 | [4] -0.007 | Nexturastat A -0.074 | vemurafenib 0.051 | [5] -0.029 | [6] 0.018 | givinostat -0.02 | barasertib 0.021 | [7] 0.026 | volasertib 0.029 | [8] 0.011 | epoxomicin 0.001 | [9] 0.026 | [10] -0.006 | [11] 0.01 | rosiglitazone -0.01 | [12] -0.101 | [13] 0.123

RANBP9 (UniProt Q96S59)
inactive: [1] 0.013 | [2] -0.04 | [3] -0.021 | [4] 0.013 | Nexturastat A 0.05 | vemurafenib 0.012 | [5] -0.007 | [6] 0.069 | givinostat -0.017 | barasertib 0.013 | [7] -0.03 | volasertib -0.073 | [8] -0.018 | epoxomicin 0.054 | [9] 0.013 | [10] -0.025 | [11] -0.013 | rosiglitazone -0.046 | [12] -0.012 | [13] 0.011

RAB12, A0A3B3ITT1
inactive: [1] -0.013 | [2] -0.021 | [3] -0.03 | [4] 0.017 | Nexturastat A -0.05 | vemurafenib -0.015 | [5] -0.017 | [6] 0.007 | givinostat -0.008 | barasertib 0.017 | [7] 0.019 | volasertib -0.072 | [8] -0.048 | epoxomicin -0.019 | [9] 0.002 | [10] 0.048 | [11] -0.017 | rosiglitazone 0.006 | [12] -0.079 | [13] 0.004

RAB23 (UniProt Q9ULC3)
inactive: [1] -0.002 | [2] -0.001 | [3] -0.005 | [4] 0 | Nexturastat A -0.166 | vemurafenib -0.008 | [5] -0.005 | [6] 0.021 | givinostat 0.025 | barasertib -0.014 | [7] 0.049 | volasertib 0.069 | [8] -0.013 | epoxomicin 0.015 | [9] -0.051 | [10] -0.025 | [11] -0.018 | rosiglitazone 0.008 | [12] -0.068 | [13] 0.103

RAD51C (UniProt O43502)
inactive: [1] -0.017 | [2] 0.059 | [3] -0.023 | [4] -0.047 | Nexturastat A -0.017 | vemurafenib -0.039 | [5] 0.008 | [6] -0.102 | givinostat -0.002 | barasertib 0.063 | [7] 0.027 | volasertib -0.03 | [8] 0.068 | epoxomicin 0.031 | [9] -0.011 | [10] -0.019 | [11] 0.104 | rosiglitazone 0.044 | [12] -0.076 | [13] 0.081

Four successive entries already listed, for reference:
RACK1 (UniProt P63244)
inactive: [1] 0.015 | [2] 0.015 | [3] 0.011 | [4] 0.064 | Nexturastat A -0.055 | vemurafenib 0.016 | [5] -0.008 | [6] 0.016 | givinostat -0.046 | barasertib -0.023 | [7] 0.066 | volasertib 0.149 | [8] 0.046 | epoxomicin 0.033 | [9] 0.012 | [10] -0.07 | [11] 0.002 | rosiglitazone 0.01 | [12] -0.069 | [13] -0.027

RAP1A (UniProt P62834)
inactive: [1] 0.012 | [2] -0.05 | [3] 0.003 | [4] -0.007 | Nexturastat A -0.074 | vemurafenib 0.051 | [5] -0.029 | [6] 0.018 | givinostat -0.02 | barasertib 0.021 | [7] 0.026 | volasertib 0.029 | [8] 0.011 | epoxomicin 0.001 | [9] 0.026 | [10] -0.006 | [11] 0.01 | rosiglitazone -0.01 | [12] -0.101 | [13] 0.123

RANBP9 (UniProt Q96S59)
inactive: [1] 0.013 | [2] -0.04 | [3] -0.021 | [4] 0.013 | Nexturastat A 0.05 | vemurafenib 0.012 | [5] -0.007 | [6] 0.069 | givinostat -0.017 | barasertib 0.013 | [7] -0.03 | volasertib -0.073 | [8] -0.018 | epoxomicin 0.054 | [9] 0.013 | [10] -0.025 | [11] -0.013 | rosiglitazone -0.046 | [12] -0.012 | [13] 0.011

RAB12, A0A3B3ITT1
inactive: [1] -0.013 | [2] -0.021 | [3] -0.03 | [4] 0.017 | Nexturastat A -0.05 | vemurafenib -0.015 | [5] -0.017 | [6] 0.007 | givinostat -0.008 | barasertib 0.017 | [7] 0.019 | volasertib -0.072 | [8] -0.048 | epoxomicin -0.019 | [9] 0.002 | [10] 0.048 | [11] -0.017 | rosiglitazone 0.006 | [12] -0.079 | [13] 0.004

Next part

RABIF (UniProt P47224)
inactive: [1] -0.058 | [2] -0.033 | [3] 0.026 | [4] 0.058 | Nexturastat A -0.001 | vemurafenib 0.021 | [5] 0.063 | [6] 0.023 | givinostat -0.007 | barasertib 0.025 | [7] 0 | volasertib -0.047 | [8] -0.001 | epoxomicin 0.093 | [9] 0.022 | [10] 0.006 | [11] -0.083 | rosiglitazone -0.062 | [12] -0.023 | [13] 0.072

RAB10 (UniProt P61026)
inactive: [1] -0.012 | [2] 0.018 | [3] -0.021 | [4] 0.021 | Nexturastat A -0.09 | vemurafenib 0.02 | [5] -0.022 | [6] -0.019 | givinostat -0.013 | barasertib 0.013 | [7] 0.069 | volasertib 0.018 | [8] -0.034 | epoxomicin -0.028 | [9] 0.05 | [10] -0.001 | [11] -0.011 | rosiglitazone 0.014 | [12] -0.064 | [13] 0.049

RBBP7 isoform 2 (UniProt Q16576)
inactive: [1] 0.028 | [2] -0.016 | [3] 0.006 | [4] 0.042 | Nexturastat A -0.077 | vemurafenib 0.038 | [5] 0.014 | [6] -0.099 | givinostat -0.025 | barasertib 0.008 | [7] -0.041 | volasertib -0.076 | [8] -0.019 | epoxomicin 0.007 | [9] 0.017 | [10] -0.009 | [11] -0.01 | rosiglitazone 0.014 | [12] -0.048 | [13] 0.001

RAB6B (UniProt Q9NRW1)
inactive: [1] 0.052 | [2] -0.004 | [3] -0.02 | [4] -0.025 | Nexturastat A -0.065 | vemurafenib -0.072 | [5] -0.053 | [6] 0.095 | givinostat 0.028 | barasertib -0.016 | [7] 0.04 | volasertib 0.096 | [8] -0.056 | epoxomicin -0.062 | [9] 0.045 | [10] 0 | [11] -0.028 | rosiglitazone 0.009 | [12] -0.046 | [13] 0.075

RAB29 (UniProt O14966)
inactive: [1] -0.018 | [2] 0.036 | [3] 0.008 | [4] 0.001 | Nexturastat A -0.105 | vemurafenib 0.017 | [5] 0.003 | [6] -0.053 | givinostat 0.048 | barasertib -0.029 | [7] 0.032 | volasertib 0.065 | [8] 0.035 | epoxomicin -0.057 | [9] 0.001 | [10] 0.027 | [11] 0.038 | rosiglitazone 0.03 | [12] -0.087 | [13] -0.018

RASSF5 (UniProt Q8WWW0)
inactive: [1] -0.014 | [2] -0.123 | [3] -0.01 | [4] 0.011 | Nexturastat A 0.182 | vemurafenib -0.075 | [5] -0.089 | [6] 0.079 | givinostat -0.025 | barasertib -0.004 | [7] 0.066 | volasertib 0.046 | [8] 0.047 | epoxomicin 0.047 | [9] -0.024 | [10] -0.077 | [11] -0.081 | rosiglitazone 0.042 | [12] 0.002 | [13] 0.018

RAB11B (UniProt Q15907)
inactive: [1] -0.033 | [2] 0.004 | [3] -0.021 | [4] -0.012 | Nexturastat A -0.008 | vemurafenib -0.028 | [5] -0.039 | [6] -0.04 | givinostat -0.006 | barasertib -0.003 | [7] 0.052 | volasertib 0.09 | [8] -0.062 | epoxomicin 0 | [9] 0.03 | [10] 0.022 | [11] -0.062 | rosiglitazone -0.042 | [12] -0.035 | [13] 0.047

RAB40C (UniProt Q96S21)
inactive: [1] -0.025 | [2] -0.095 | [3] 0.127 | [4] -0.016 | Nexturastat A -0.037 | vemurafenib 0.033 | [5] -0.074 | [6] -0.197 | givinostat 0.11 | barasertib -0.099 | [7] -0.155 | volasertib -0.073 | [8] -0.03 | epoxomicin 0.11 | [9] 0.029 | [10] 0.229 | [11] 0.009 | rosiglitazone 0.011 | [12] 0.19 | [13] -0.186
